In series [1] the target is T1, BglII restriction endonuclease (UniProt Q45488).
T1 sequence (looked up, limits assumed): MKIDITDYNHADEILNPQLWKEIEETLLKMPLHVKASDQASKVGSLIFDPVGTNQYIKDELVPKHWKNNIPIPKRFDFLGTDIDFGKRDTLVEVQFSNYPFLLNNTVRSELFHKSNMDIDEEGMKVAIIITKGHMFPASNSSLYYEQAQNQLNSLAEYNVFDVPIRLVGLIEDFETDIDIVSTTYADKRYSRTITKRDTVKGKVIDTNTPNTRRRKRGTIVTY
The series can be described thus: enzyme reaction in vitro. The settings on record: purified native protein, protein details: New England Biolabs.

Series [2] addresses T2, BglII modification methylase (M.BglII) (Bacillus globigii) (UniProt Q45489).
T2 sequence (looked up, limits assumed): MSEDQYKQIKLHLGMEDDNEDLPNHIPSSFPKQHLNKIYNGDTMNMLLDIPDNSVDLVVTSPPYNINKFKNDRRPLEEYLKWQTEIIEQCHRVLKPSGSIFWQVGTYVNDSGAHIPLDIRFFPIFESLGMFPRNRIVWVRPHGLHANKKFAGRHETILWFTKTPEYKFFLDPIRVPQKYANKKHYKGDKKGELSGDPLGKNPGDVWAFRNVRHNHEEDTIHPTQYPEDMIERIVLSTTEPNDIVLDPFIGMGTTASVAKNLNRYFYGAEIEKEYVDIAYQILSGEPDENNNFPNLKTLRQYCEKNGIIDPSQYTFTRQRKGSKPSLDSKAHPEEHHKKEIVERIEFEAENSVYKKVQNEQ
Put plainly: activity in cells. The conditions noted are these: methylated in vivo by M.BglII; in vivo methylation in E. coli RR1; protein in cells; variant of pAMB3 plasmid with BglII linkers; only the site is given.

For part of these data: Negatives hold for the conditions tested. Protein sequences can lack the tags named with them.

Take “CAGATCTG (double strand) [pAMB3 plasmid with BglII linkers]”: the “activity on this sequence” value in series [1] (vector religated after loss of bglIIM insert) is “active”.

As for “CAGATCTG (double strand) [pMB05 (pAMB3 carrying bglIIM, modified in vivo)]”, the “activity on this sequence” value in series [1] (methylated in vivo by M.BglII, 15 of 16 surviving plasmids resistant, M.BglII-modified, variant of pAMB3 plasmid with BglII linkers, only the site is given) is reported as “not active”; in series [2], “active”.

The values above are taken from patent US5434068.
